These are yes or no findings as the source states them, for the method shown. Some binding calls cover weakened binding; strength is not graded here.
Experiments:
[1] = molecular target: T1, human PCSK9 (construct not stated) (human, UniProt Q8NBP7 31-692, limits assumed); test: blocking ELISA of the binding of PCSK9 to LDL-R, A450; blocked ligand: LDL-R
[2] = molecular target: T1, human PCSK9 (construct not stated); test: binding ELISA on human PCSK9, A450
[3] = molecular target: human PCSK9 with C-terminal 6-His tag, biotin-labelled (PCSK9-His-biotin) (human) (UniProt Q8NBP7); test: ELISA binding assay
[4] = molecular target: T1, human PCSK9 (construct not stated); test: ELISA, biotin-labelled PCSK9 on a streptavidin plate, antibody pre-incubated in human serum at 37 C for 0 or 3 days, goat anti-human-HRP, OD450
[5] = molecular target: T1, human PCSK9 (construct not stated); test: ELISA on biotin-labeled PCSK9 captured on streptavidin, after incubation in human serum at 37 C
[6] = molecular target: human PCSK9 with C-terminal 6-His tag, biotin-labelled (PCSK9-His-biotin) (human) (UniProt Q8NBP7); test: ELISA binding and blocking

Amino acid sequences for entries named in this document (tags omitted). A change or cut given only in a name is not applied to a line headed by its entry.
UniProt Q8NBP7: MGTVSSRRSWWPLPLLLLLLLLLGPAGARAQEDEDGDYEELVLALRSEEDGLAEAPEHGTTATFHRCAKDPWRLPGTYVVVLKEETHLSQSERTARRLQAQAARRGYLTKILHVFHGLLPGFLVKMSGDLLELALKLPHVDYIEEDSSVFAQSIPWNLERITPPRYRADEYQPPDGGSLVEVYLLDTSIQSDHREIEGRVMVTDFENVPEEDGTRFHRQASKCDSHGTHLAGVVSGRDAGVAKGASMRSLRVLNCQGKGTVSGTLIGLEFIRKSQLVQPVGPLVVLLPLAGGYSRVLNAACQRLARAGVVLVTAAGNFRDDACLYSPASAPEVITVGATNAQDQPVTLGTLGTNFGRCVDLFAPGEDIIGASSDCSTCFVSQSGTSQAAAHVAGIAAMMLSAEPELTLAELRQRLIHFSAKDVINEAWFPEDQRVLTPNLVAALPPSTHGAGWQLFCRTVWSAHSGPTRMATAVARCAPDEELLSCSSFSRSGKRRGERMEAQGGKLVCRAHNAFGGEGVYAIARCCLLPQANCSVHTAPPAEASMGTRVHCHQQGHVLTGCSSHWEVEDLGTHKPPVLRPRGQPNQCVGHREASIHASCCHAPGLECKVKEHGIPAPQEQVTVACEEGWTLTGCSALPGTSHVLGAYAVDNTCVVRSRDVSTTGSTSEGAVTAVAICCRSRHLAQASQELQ

Measured: binding

B1: 2.12.12.4-z4-uIgG4k (antibody, V domains shown)
VH: QVQLVQSGAEVKKPGSSVKVSCEASGYTFTNYVMHWVRQAPGQGLEWMGYINPYNDYIKYNEKFKGKATITADKSTSTAYMELSSLRSEDTAVYYCGRQRYYGYRPYYAMDYWGQGTLVTVSS
VL: DIVLTQSPASLAVSPGQRATITCRASESVDGYGNVFMHWYQQKPGQPPKLLIYLASNLESGVPARFSGSGSGTDFTLTINPVEANDTANYYCQQNNKDPWTFGGGTKVEIK
notes: the chains here are derived by undoing them; Human constant region of IgG4 isotype, kappa light chain
binds: all assays above

From US20200165354A1 (WUXI BIOLOGICS IRELAND, published 2020)
